# Assay results taken from PubChem BioAssay AID1347423 (Functional Genomics Laboratory (NCATS/FGL), 2020).
# About 210 (0.4%) of roughly 52,000 sequences were called active.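 The calls were made as follows: active = gene whose silencing raises cell survival under the drug, median off-target-corrected z-score across its silencing RNAs 2 or more; inactive = the rest.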 The list shows a part of the results.
# Experiment: Resistance to Poly (ADP-Ribose) Polymerase inhibitor: Gene Identification via Genome-wide siRNA Screen
# Conditions: mouse BRCA2 R2336H ES cells, olaparib, CellTiter-Glo viability; stronger effect = higher value
# Procedure, shortened: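 Mouse BRCA2 R2336H ES cells were reverse-transfected with siRNA (20 nM final), treated at 48 h with 500 nM olaparib, and read by CellTiter-Glo after 72 h. Scores: MAD-based z per siRNA, median per gene, seed off-target correction.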
row,Sequence,z-score
1,UGAUCGAGAAUGAACUUACTT against Kb14,inactive: 0.327
2,GGAAGAGAGAUGGAAAAAATT against Gcnt1,inactive: -0.555
3,GCACUCAAAUGGUAGAUUCTT against Socs6,inactive: 1.06
4,GGAGAACUGUGUACGAUGGTT against C230093N12Rik,inactive: -1.1
5,CGCAAAGGAAGAAAUGCUGTT against Klra17,inactive: 0.15
6,GGCUUUUUAUUCAAAUCCCTT against Ky,inactive: -0.147
7,GGAAGAUGAUAACAACAACTT against Kif3c,inactive: 1.8
8,GAAGCAGAACUUGAGCAAGTT against Phgdh,inactive: 1.11
9,GGCCGUGUACAACAACUUCTT against Zfp537,inactive: 0.542
10,GGAGCAGAUACCCUAGCCUTT against Mtx1,inactive: -1
11,CCCGGGAAUAAAUAAAGGCTT against 6720416L17Rik,inactive: 0.105
12,GCCGUCAUUUUGCCUCGAUTT against Zswim3,inactive: -0.296
13,GGAGAAGUAUGACAGAAUUTT against 5430425C04Rik,inactive: -1.87
14,CCAGUUUUUCGAGUAUACGTT against Galnt12,inactive: 0.605
15,GGUAGUUGAGGUUUUAUAGTT against 4933434L15Rik,inactive: 0.187
16,GGAUUCUUGGCUUUAAGACTT against 9430023P16Rik,inactive: -0.0156
17,GGAAUACACCAUUUAACAATT against Acbd5,inactive: -0.596
18,CCUCACAAAGCACAAUAUCTT against Sntg1,inactive: 0.304
19,GCGGAACCUGAACAUUCGUTT against Zhx2,inactive: 1.46
20,CCUUCUCCUGAAGAAUUGATT against BC004728,inactive: 3
21,GGCCAGGUACUAUACACAUTT against B930076A02,inactive: 1.46
22,GCACAUGGUGAUUUAUAUATT against Ostn,inactive: 0.147
23,GGUGCAGGCCAUGAUUUACTT against C1qtnf4,inactive: 1.89
24,GGCUCAAUAAAAUGAAGUGTT against Elovl2,inactive: 1.28
25,GGCGGUUAAUGACAAGAACTT against Sdk2,inactive: 0.103
26,GGCAGUGGCCGAAAAGACUTT against Fzd7,inactive: 0.137

# Reformatted tab-delimited: entries from further up
row	Sequence	z-score
15	GGUAGUUGAGGUUUUAUAGTT against 4933434L15Rik	inactive: 0.187
26	GGCAGUGGCCGAAAAGACUTT against Fzd7	inactive: 0.137

# The list continues:

row,Sequence,z-score
1,GGACUACUCGGAUUUAGCUTT against Prss15,inactive: -0.83
2,GGAGAAAAGGAUGUUGUUATT against 2310005P05Rik,inactive: 2.57
3,GGAGACUGCUUUCCUCUACTT against Wnt9a,inactive: 0.479
4,CCAAGUUAGUCUGCGUAUUTT against 2610305D13Rik,inactive: -1.24
5,GGUGAUUUCGGGUAACGAGTT against Ddr1,inactive: -0.0125
6,GGUCAAUGUUCACCAGCCATT against 2410080H04Rik,inactive: -0.983
7,CCUUCGACACCUUACAAGUTT against 2410011G03Rik,inactive: 0.257
8,GCUUAGAUAUUUCUUAUGCTT against 2610300B10Rik,inactive: -0.193
9,GGAAAUUGAACAGCGAUUATT against C430014D17Rik,inactive: -1.5
10,GGAUCUGUGUGCUAACAGCTT against 4930550C14Rik,inactive: -0.925
11,GAGAUUUUGUUUGGGUUGUTT against Olfr1126,inactive: 1.16
12,GCAUUGGGUUUAUCAGCAUTT against 6720460F02Rik,inactive: 0.682
13,GGCCCUAUUUUGGAUAACUTT against Tgfb1i1,inactive: 0.356
14,GCUUCUGGUUUUCGGCUAUTT against Sfrs8,inactive: -0.593
15,CCCAAAGGUGAUGUUACCUTT against H2-M3,inactive: -0.73
16,GGAGUUUGAAAGUUCCUUCTT against Dap3,inactive: 0.695
17,GGAUGUCGGCGGUAAAUGATT against 2010110O04Rik,inactive: -0.643
18,CCAUCUUCCUCUUUCCUAUTT against Gpr30,inactive: 0.177
19,GGUAUGACCUAGUGGAGGGTT against Trem1,inactive: 1.47
20,GGUGGCCAUCAAGAAGAUATT against Mapk7,inactive: -0.311
21,GGUCUAGAUUAUGAGCAAUTT against Pcdhga7,inactive: 4.32
22,GCCAUUCUGCCCUACACAATT against Rasa1,inactive: 0.239
23,GCCAGUUUAGGUAAUAAACTT against Socs1,inactive: 0.307
24,CCAUCGUAUAAAUUACCAUTT against Plaa,inactive: 0.0462
25,GGACCAUGCACUUAUGACCTT against 1700013H19Rik,inactive: 0.994
26,GGAGAAGUUAAAGAAGAACTT against Ddx55,inactive: -0.145

row,Sequence,z-score
1,GGAAUGGUAGCCACUGUUATT against Klrg1,inactive: 2.3
2,GGUUGUCUCUUGAGAAUGATT against Cst10,inactive: -0.951
3,GCUACAACAAGACAAAGUCTT against D1Ertd251e,inactive: 1.08
4,GCCCUCUCACAUCAGUAUUTT against 4921521K07Rik,inactive: 0.323
5,GGGCCCUGUUUCAAAACUUTT against 2810446P07Rik,inactive: 1.89
6,GCCCAGUUUGGUUAUGUAUTT against 2310016N21Rik,inactive: -0.249
7,GCAGCUUUAGGUCCAUUCGTT against Pkd2l2,inactive: 0.744
8,GCAAGGCCUAAUGGUCAGATT against Cnga3,inactive: -1.49
9,GCUGAAAAGCAGAAGCCACTT against 2610028H24Rik,inactive: 0.781
10,GGAUCUGCUGAUGCUUCCATT against Cstf1,inactive: -0.548
11,GGUUUAGAAUGCAUAACAGTT against 2810039F03Rik,inactive: -0.79
12,GGAAUACCAGGAAUACGAGTT against Sncb,inactive: 1.85
13,GGAUUCCUACAGGUGUGAATT against 4930503E14Rik,inactive: -1.1
14,GGAAUGGAUACUUAUCUCUTT against Tef,inactive: -0.232
15,GGCAAAUAUUUCCAAGUACTT against Pgcp,inactive: -0.778
16,CCUGUCGUUCCCUUAAAUATT against 2210409M21Rik,inactive: 0.215
17,GGACAAUACCUACCUCGCATT against Polr3d,inactive: -1.12
18,GCUCAACUUACGUUCACUCTT against Tcfl1,inactive: -1.36
19,GCUCUCGACUCUUUACACUTT against Nfatc2ip,inactive: 0.875
20,CGGGCUCUUGUAGAUUUCATT against D19Ertd678e,inactive: -1.14
21,CCCAGACAUUACAUGGCCUTT against Cldn6,inactive: 0.91
22,GCACCUAGUAUUGAAAGUCTT against Ccna2,inactive: -0.394
23,GGGAUCCUUAUUUCAUACUTT against Olfr868,inactive: 1.3
24,GUGAAGAGGAGCAGGACUUTT against Klrc3,inactive: -2.95
25,GGGAUAUGUGAUUAUUUACTT against 1110001J12Rik,inactive: 1.83
26,GGAGAUCUAUCUGGUCCAUTT against 2210013M04Rik,inactive: 0.117

row,Sequence,z-score
1,AGGGCGAUGCCAUUUCUUATT against 5930434B04Rik,inactive: -0.433
2,GGAGAUUGUUAUGCAAAAATT against Dnahc5,inactive: -0.673
3,CCUAAGGUUGUCUGUAAAUTT against Ndufs3,inactive: -1.09
4,GGAUAACAAAAACAGCAUUTT against 9930036E21Rik,inactive: 0.743
5,GGAGGACAUUGAUGUGAUGTT against Sag,inactive: -0.276
6,GGUCACUGUCAUCAACAGATT against Il6st,inactive: 2.1
7,CCUUGAUGUCACAUGUAUUTT against Gbif,inactive: 0.601
8,CCGAACAGAGGAAGAAGGCTT against Olfr816,inactive: 0.0384
9,GGACUGUUUUGAGAAUUGATT against Vil1,inactive: 1.15
10,CGCGAUAACGAAGAACAAUTT against Tmod3,inactive: 0.0782
11,GCUGGAAUAUAGGAAUGUCTT against Pex11c,inactive: -1.46
12,GCUAGACCAACCUGAUUGGTT against 1200016B17Rik,inactive: -0.109
13,GGAUGAGUUCUUUAUGGAGTT against Cdh15,inactive: 1.39
14,GCACCUAAGAUCACAGCCUTT against Sh3gl1,inactive: -0.436
15,CCGUCUUCUGCUGUGGAACTT against Ctrc,inactive: 2.18
16,UGCUCUCAAGCUUCAUUCUTT against Rarb,inactive: 0.602
17,CCGGAUUGUGAUCUGUUACTT against Bckdha,inactive: -0.178
18,GGAGAAAAAUCCUACCGACTT against 9830124H08Rik,inactive: 0.495
19,CCCUCCAAGAUAGAAGCGGTT against 2610021K21Rik,inactive: 0.124
20,GCAUGAAUUGUGGAAGAGATT against Csnk1a1,inactive: -0.482
21,GGUAUCUGUGCAAGGGCAATT against Defb5,inactive: -2.57
22,GGACAGGAUCAGAGAAAGATT against B230208J24Rik,inactive: -1.88
23,GGUCCUCAACUACAUUUUUTT against D13Wsu14e,inactive: 0.304
24,GGCCACUUGAGAACAUUCGTT against Nola3,inactive: -1.15
25,GGUAAUAAGUCCCAUUUUCTT against Prpmp5,inactive: 1.16

# A run of entries from further up, as a working copy:
row,Sequence,z-score
15,CCGUCUUCUGCUGUGGAACTT against Ctrc,inactive: 2.18
16,UGCUCUCAAGCUUCAUUCUTT against Rarb,inactive: 0.602
17,CCGGAUUGUGAUCUGUUACTT against Bckdha,inactive: -0.178
18,GGAGAAAAAUCCUACCGACTT against 9830124H08Rik,inactive: 0.495
19,CCCUCCAAGAUAGAAGCGGTT against 2610021K21Rik,inactive: 0.124
20,GCAUGAAUUGUGGAAGAGATT against Csnk1a1,inactive: -0.482
